Some of the results follow. Small differences around the control level are noise.
compound: CN[C@@H]1C[C@H]2O[C@@](C)([C@@H]1OC)n1c3ccccc3c3c4c(c5c6ccccc6n2c5c31)C(=O)NC4 [staurosporine]; test: log2 fold change of pooled soluble protein (PISA), ligand vs vehicle (log2 ratio); higher = more thermally stabilized; conditions: ligand concentration: 20 uM; assay format: PISA pool 52.9/55.5/58.6 C

Sequences of proteins named here, by UniProt entry; tags and fusion partners are left off. A change or cut given only in a name is not applied to a line headed by its entry.
UniProt Q60631, whole entry: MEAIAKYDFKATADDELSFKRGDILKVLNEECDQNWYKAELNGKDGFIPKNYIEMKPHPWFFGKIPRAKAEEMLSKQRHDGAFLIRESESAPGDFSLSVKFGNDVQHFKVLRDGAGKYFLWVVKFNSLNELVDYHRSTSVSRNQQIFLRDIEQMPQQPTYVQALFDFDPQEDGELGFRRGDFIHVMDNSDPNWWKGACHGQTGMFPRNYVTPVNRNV
UniProt Q640N2: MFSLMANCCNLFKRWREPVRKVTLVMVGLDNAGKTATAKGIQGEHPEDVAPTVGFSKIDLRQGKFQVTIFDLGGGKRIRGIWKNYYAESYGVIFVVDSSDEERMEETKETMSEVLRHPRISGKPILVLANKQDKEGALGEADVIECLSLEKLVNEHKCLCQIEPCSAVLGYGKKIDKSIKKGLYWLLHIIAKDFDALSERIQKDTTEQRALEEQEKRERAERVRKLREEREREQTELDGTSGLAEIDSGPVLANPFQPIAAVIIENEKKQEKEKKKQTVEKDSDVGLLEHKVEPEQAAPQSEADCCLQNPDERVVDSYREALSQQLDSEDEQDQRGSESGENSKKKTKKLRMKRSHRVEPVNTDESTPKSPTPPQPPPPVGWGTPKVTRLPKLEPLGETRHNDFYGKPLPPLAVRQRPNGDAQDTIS
UniProt Q61136: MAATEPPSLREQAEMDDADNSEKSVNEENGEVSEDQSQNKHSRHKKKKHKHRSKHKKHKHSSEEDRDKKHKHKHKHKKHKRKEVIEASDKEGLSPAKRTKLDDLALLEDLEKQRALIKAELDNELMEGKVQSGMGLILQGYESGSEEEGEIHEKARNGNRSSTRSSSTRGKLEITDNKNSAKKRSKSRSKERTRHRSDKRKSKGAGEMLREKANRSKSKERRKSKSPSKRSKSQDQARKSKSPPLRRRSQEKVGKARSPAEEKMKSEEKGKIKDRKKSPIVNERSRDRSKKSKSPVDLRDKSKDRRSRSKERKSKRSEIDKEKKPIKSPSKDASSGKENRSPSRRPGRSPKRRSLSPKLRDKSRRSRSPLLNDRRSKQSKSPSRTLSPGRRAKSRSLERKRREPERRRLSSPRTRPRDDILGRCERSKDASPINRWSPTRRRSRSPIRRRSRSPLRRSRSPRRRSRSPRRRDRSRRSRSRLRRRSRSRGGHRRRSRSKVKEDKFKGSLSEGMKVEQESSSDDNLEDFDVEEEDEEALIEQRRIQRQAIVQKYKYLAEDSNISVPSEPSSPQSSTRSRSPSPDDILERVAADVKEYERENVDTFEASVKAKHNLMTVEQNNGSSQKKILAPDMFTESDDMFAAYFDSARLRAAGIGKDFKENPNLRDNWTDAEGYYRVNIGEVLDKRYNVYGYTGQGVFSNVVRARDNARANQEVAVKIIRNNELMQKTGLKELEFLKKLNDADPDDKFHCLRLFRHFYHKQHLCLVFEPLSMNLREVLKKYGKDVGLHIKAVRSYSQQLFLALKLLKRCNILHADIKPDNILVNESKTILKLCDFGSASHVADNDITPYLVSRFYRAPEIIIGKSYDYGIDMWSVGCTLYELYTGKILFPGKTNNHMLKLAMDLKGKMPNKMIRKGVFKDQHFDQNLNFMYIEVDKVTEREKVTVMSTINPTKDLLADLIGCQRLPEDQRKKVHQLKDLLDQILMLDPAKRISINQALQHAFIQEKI
UniProt Q5U458: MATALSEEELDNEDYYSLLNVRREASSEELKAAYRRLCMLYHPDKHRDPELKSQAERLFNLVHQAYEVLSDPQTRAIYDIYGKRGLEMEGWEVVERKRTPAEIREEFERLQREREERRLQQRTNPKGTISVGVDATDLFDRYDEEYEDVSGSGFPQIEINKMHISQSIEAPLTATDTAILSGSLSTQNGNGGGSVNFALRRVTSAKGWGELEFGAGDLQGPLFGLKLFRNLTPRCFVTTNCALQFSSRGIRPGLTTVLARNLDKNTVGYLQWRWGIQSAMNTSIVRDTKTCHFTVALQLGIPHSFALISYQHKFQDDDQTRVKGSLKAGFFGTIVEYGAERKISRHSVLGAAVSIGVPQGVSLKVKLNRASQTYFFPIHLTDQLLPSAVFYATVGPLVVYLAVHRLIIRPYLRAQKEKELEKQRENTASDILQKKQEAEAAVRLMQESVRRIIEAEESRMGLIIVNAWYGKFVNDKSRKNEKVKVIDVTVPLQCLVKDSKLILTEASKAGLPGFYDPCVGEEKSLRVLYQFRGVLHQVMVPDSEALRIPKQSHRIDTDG
UniProt Q61069: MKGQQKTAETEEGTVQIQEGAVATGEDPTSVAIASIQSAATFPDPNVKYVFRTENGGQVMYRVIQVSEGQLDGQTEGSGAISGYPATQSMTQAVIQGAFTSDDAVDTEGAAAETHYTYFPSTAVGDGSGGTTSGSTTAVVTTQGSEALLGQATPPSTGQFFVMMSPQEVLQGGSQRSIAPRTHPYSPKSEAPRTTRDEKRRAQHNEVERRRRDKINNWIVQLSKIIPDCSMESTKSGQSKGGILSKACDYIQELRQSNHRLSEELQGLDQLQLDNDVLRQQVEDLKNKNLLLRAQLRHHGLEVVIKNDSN
UniProt Q68FE2: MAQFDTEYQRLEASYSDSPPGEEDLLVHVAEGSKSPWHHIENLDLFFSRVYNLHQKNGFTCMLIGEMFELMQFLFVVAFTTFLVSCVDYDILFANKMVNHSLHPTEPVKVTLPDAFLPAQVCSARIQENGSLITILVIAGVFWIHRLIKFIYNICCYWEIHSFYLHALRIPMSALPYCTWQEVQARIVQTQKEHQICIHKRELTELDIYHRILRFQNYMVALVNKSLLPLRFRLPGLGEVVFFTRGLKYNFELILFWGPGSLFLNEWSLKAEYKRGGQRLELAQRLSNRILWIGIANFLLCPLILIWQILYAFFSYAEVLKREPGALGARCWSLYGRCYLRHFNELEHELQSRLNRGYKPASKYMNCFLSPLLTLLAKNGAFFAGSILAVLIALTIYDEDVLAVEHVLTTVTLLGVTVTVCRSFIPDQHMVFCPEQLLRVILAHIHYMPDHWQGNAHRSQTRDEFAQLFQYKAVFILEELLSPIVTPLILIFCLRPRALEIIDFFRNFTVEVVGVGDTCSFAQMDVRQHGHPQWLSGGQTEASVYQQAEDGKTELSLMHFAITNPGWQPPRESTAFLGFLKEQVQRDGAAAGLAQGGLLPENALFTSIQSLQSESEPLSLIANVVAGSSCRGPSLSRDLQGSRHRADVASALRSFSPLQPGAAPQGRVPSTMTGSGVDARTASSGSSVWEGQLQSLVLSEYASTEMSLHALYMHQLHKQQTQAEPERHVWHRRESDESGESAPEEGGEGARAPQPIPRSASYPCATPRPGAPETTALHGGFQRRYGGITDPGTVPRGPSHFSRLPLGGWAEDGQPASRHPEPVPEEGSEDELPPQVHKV
UniProt Q6A098: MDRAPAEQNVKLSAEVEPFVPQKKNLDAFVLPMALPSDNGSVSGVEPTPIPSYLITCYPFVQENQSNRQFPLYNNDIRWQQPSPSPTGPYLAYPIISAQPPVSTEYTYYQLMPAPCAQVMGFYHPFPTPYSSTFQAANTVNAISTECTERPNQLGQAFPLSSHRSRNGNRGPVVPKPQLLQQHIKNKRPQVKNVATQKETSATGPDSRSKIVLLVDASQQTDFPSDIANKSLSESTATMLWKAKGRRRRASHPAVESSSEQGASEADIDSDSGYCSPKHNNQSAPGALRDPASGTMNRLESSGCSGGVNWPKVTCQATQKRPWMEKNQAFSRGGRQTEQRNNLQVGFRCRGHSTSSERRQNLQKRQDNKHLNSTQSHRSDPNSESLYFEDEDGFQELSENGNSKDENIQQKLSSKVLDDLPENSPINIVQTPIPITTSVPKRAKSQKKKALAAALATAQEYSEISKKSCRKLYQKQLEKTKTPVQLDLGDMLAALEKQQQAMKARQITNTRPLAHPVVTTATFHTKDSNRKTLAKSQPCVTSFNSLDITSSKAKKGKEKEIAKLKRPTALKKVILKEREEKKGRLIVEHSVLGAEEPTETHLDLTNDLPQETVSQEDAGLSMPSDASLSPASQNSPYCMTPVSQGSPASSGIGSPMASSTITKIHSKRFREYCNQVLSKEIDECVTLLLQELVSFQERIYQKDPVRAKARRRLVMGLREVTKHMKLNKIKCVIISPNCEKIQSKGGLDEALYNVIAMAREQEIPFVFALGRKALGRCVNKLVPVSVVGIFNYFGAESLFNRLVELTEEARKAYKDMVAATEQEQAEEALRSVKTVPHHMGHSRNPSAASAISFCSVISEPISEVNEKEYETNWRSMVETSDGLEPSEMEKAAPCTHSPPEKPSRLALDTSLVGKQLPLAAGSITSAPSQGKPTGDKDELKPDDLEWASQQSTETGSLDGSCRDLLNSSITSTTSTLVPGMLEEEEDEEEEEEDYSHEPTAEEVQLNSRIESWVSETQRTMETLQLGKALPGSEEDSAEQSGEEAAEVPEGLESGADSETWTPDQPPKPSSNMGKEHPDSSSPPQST
UniProt Q62393: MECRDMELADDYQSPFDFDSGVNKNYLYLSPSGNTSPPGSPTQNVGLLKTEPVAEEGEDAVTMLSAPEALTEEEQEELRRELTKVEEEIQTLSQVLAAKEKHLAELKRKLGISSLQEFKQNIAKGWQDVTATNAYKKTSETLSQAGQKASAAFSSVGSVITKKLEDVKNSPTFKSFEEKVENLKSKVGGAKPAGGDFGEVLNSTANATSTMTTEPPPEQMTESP
UniProt Q61387: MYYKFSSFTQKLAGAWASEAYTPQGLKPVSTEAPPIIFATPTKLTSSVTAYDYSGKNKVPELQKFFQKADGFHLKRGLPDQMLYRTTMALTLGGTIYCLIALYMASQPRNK
UniProt Q64310: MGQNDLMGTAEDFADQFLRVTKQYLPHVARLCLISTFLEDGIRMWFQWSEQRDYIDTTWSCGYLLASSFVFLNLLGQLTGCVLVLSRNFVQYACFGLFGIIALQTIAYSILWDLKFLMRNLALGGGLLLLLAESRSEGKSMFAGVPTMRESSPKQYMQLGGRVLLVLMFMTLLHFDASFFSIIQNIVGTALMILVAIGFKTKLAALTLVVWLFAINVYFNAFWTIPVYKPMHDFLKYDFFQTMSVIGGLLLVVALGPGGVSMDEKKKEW
UniProt Q63836: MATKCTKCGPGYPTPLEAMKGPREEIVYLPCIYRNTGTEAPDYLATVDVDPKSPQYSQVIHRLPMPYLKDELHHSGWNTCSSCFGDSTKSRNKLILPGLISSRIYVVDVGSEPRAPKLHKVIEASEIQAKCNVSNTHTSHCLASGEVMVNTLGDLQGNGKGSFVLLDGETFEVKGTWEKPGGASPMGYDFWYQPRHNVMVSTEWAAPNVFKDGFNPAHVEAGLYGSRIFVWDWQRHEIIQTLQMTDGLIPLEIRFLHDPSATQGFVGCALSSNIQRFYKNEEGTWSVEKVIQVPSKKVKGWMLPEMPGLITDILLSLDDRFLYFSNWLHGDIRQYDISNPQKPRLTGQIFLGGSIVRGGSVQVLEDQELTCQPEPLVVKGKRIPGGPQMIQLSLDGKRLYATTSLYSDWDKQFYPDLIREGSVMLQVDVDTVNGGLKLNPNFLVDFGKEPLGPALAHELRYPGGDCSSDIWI
UniProt Q640M1: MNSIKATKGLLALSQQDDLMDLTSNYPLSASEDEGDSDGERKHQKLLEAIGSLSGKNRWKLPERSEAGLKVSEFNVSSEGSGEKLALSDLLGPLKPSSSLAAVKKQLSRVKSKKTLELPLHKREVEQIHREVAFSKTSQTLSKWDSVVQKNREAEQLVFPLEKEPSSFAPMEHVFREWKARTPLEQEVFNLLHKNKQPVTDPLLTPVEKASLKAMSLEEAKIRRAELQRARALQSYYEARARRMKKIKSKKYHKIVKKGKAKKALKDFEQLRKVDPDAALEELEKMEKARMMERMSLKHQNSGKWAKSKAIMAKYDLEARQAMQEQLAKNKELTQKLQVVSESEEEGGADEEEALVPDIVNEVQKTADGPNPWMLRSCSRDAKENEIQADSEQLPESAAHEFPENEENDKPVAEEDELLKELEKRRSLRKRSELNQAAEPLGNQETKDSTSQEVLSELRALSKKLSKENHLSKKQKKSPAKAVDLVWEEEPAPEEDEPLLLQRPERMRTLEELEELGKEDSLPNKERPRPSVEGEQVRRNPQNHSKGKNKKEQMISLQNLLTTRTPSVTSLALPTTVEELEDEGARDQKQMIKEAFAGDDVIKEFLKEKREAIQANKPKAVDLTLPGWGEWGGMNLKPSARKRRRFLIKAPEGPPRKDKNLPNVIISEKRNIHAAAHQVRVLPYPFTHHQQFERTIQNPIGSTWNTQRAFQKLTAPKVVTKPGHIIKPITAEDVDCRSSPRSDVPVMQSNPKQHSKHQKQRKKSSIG
UniProt Q60930: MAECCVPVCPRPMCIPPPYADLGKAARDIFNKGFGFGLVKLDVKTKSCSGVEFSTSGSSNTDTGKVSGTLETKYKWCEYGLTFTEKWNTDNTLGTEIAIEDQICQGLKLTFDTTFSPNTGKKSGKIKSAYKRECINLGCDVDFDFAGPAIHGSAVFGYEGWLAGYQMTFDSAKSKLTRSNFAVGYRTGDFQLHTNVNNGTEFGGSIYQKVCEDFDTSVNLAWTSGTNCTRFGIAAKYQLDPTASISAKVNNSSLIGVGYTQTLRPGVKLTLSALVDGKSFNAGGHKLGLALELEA

**Q.** For UniProt Q5U4C3, which “log2 fold change of pooled soluble protein” value (“log2 fold change” for short) is on record?
**A.** -0.315

**Q.** Which “log2 fold change” value does the source give for UniProt Q63886 here?
**A.** 0.102

**Q.** Which “log2 fold change” value does the source give for UniProt Q64324 here?
**A.** -0.00718

**Q.** UniProt Q60631 was tested. Which “log2 fold change” value did it give?
**A.** -0.074

**Q.** Which “log2 fold change” value does the source give for UniProt Q61694 here?
**A.** -0.0617

**Q.** With UniProt Q640N2 as the target, how does the “log2 fold change” value read?
**A.** -0.133

**Q.** Which “log2 fold change” value does the source give for UniProt Q61136 here?
**A.** 0.0416

**Q.** UniProt Q61462 was tested. Which “log2 fold change” value did it give?
**A.** -0.116

**Q.** Which “log2 fold change” value does the source give for UniProt Q5U458 here?
**A.** 0.0328

**Q.** For UniProt Q62167, which “log2 fold change” value is on record?
**A.** -0.0547

**Q.** How did the “log2 fold change” value turn out when UniProt Q61069 was run?
**A.** -0.0735

**Q.** UniProt Q68FE2 was tested. Which “log2 fold change” value did it give?
**A.** 0.142

**Q.** Which “log2 fold change” value does the source give for UniProt Q61315 here?
**A.** -0.165

**Q.** With UniProt Q64481 as the target, how does the “log2 fold change” value read?
**A.** 0.149

**Q.** With UniProt Q6A098 as the target, how does the “log2 fold change” value read?
**A.** 0.0164

**Q.** How did the “log2 fold change” value turn out when UniProt Q62393 was run?
**A.** 0.0784

**Q.** UniProt Q61387 was tested. Which “log2 fold change” value did it give?
**A.** 0.204

**Q.** Which “log2 fold change” value does the source give for UniProt Q62446 here?
**A.** 0.0531

**Q.** For UniProt Q64310, which “log2 fold change” value is on record?
**A.** -0.51

**Q.** Which “log2 fold change” value does the source give for UniProt Q6IFZ9 here?
**A.** -0.255

**Q.** For UniProt Q64152, which “log2 fold change” value is on record?
**A.** -0.168

**Q.** UniProt Q63961 was tested. Which “log2 fold change” value did it give?
**A.** 0.0765

**Q.** How did the “log2 fold change” value turn out when UniProt Q5SV85 was run?
**A.** -0.0419

**Q.** With UniProt Q62087 as the target, how does the “log2 fold change” value read?
**A.** 0.0786

**Q.** How did the “log2 fold change” value turn out when UniProt Q63836 was run?
**A.** 0.0922

**Q.** How did the “log2 fold change” value turn out when UniProt Q61072 was run?
**A.** 0.0933

**Q.** Which “log2 fold change” value does the source give for UniProt Q6IRU2 here?
**A.** -0.046

**Q.** UniProt Q640M1 was tested. Which “log2 fold change” value did it give?
**A.** 0.162

**Q.** Which “log2 fold change” value does the source give for UniProt Q61419 here?
**A.** 0.0398

**Q.** For UniProt Q61830, which “log2 fold change” value is on record?
**A.** 0.0384

**Q.** How did the “log2 fold change” value turn out when UniProt Q61702 was run?
**A.** -0.0536

**Q.** UniProt Q61147 was tested. Which “log2 fold change” value did it give?
**A.** -0.0473

**Q.** UniProt Q64516 was tested. Which “log2 fold change” value did it give?
**A.** 0.0315

**Q.** Which “log2 fold change” value does the source give for UniProt Q60930 here?
**A.** -0.0263

**Q.** With UniProt Q64435 as the target, how does the “log2 fold change” value read?
**A.** -0.00674

**Q.** With UniProt Q6IQX8 as the target, how does the “log2 fold change” value read?
**A.** -0.104

**Q.** UniProt Q5SSZ5 was tested. Which “log2 fold change” value did it give?
**A.** 0.105
